Laboratory results as given in publication PMC6636018.
Results are given in words; binding and its absence hold for the method and conditions named. In cells and extracts the contact can be indirect. Some results given as binding are weak or reduced against the parent protein; the word gives no strength.

Protein sequences, listed by entry. Tags and fused reporters are not part of them.
UniProt Q00987: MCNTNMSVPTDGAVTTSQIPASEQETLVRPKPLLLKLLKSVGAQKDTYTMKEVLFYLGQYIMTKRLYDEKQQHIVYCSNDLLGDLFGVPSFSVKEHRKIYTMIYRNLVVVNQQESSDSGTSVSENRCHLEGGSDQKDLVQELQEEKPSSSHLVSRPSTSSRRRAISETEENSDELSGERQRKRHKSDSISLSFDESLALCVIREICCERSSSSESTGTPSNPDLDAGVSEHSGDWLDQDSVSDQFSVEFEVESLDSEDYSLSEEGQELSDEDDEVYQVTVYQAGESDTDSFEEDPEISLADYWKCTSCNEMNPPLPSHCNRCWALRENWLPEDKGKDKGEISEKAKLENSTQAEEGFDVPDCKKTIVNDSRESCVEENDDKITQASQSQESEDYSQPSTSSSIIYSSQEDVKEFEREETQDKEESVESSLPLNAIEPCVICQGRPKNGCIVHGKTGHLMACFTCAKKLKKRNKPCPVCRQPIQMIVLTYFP

Target: MDM2 (endogenous) (human (endogenous in HCT116 p53-/-)) (UniProt Q00987)
Test: co-IP; endogenous proteins; HCT116 p53-/- cells lysed; precipitated with anti-MDM2 antibody, mouse IgG as negative control

binding: binds
B1: PHLDB2 (endogenous) (protein, UniProt Q86SQ0 1-1253)
chain: MEEHSYIQKELDLQNGSLEEDSVVHSVENDSQNMMESLSPKKYSSSLRFKANGDYSGSYLTLSQPVPAKRSPSPLGTSVRSSPSLAKIQGSKQFSYDGTDKNIPMKPPTPLLNTTSSLSGYPLGRADFDHYTGRDSERALRLSEKPPYSKYSSRHKSHDNVYSLGGLEGRKASGSLLAMWNGSSLSDAGPPPISRSGAASMPSSPKQARKMSIQDSLALQPKLTRHKELASENINLRTRKYSSSSLSHMGAYSRSLPRLYRATENQLTPLSLPPRNSLGNSKRTKLGEKDLPHSVIDNDNYLNFSSLSSGALPYKTSASEGNPYVSSTLSVPASPRVARKMLLASTSSCASDDFDQASYVGTNPSHSLLAGESDRVFATRRNFSCGSVEFDEADLESLRQASGTPQPALRERKSSISSISGRDDLMDYHRRQREERLREQEMERLERQRLETILSLCAEYTKPDSRLSTGTTVEDVQKINKELEKLQLSDEESVFEEALMSPDTRYRCHRKDSLPDADLASCGSLSQSSASFFTPRSTRNDELLSDLTRTPPPPSSTFPKASSESSYLSILPKTPEGISEEQRSQELAAMEETRIVILNNLEELKQKIKDINDQMDESFRELDMECALLDGEQKSETTELMKEKEILDHLNRKIAELEKNIVGEKTKEKVKLDAEREKLERLQELYSEQKTQLDNCPESMREQLQQQLKRDADLLDVESKHFEDLEFQQLEHESRLDEEKENLTQQLLREVAEYQRNIVSRKEKISALKKQANHIVQQAQREQDHFVKEKNNLIMMLQREKENLCNLEKKYSSLSGGKGFPVNPNTLKEGYISVNEINEPCGNSTNLSPSTQFPADADAVATEPATAVLASQPQSKEHFRSLEERKKQHKEGLYLSDTLPRKKTTSSISPHFSSATMGRSITPKAHLPLGQSNSCGSVLPPSLAAMAKDSESRRMLRGYNHQQMSEGHRQKSEFYNRTASESNVYLNSFHYPDHSYKDQAFDTLSLDSSDSMETSISACSPDNISSASTSNIARIEEMERLLKQAHAEKTRLLESREREMEAKKRALEEEKRRREILEKRLQEETSQRQKLIEKEVKIRERQRAQARPLTRYLPVRKEDFDLRSHVETAGHNIDTCYHVSITEKTCRGFLIKMGGKIKTWKKRWFVFDRNKRTFSYYADKHETKLKGVIYFQAIEEVYYDHLKNANKSPNPLLTFSVKTHDRIYYMVAPSPEAMRIWMDVIVTGAEGYTHFLL
